This is one part of the list.
Assays:
Test in all cases: log2 fold change, soluble protein after heating vs DMSO (PISA); higher = thermal stabilisation; K562 cells, 10 uM, 30 min; active = over 0.2 and 3.5 SD of the protein, either way, in both replicates (recomputed)
[1] = compound: Cc1ccc(NC(=O)c2ccc(CN3CC[C@H](N(C)C)C3)c(C(F)(F)F)c2)cc1Nc1nccc(-c2cncnc2)n1 [bafetinib]
Summary of the method: (§1)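 Soluble protein was defined as the supernatant after 21,000xg for 90 min. It came from K562 cells at 2×10^6 cells/mL given 10 μM compound for 30 min, heated in aliquots for 3 min across 48°C-58°C, pooled, and extracted in PBS with 0.5% NP-40 at 4°C, and was quantified by TMTpro 16plex LC-MS/MS with equalised channel sums. Thermal stability against control samples, from duplicates, is reported as log2 fold change.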

Amino acid sequences for entries named in this document (tags omitted). A change or cut given only in a name is not applied to a line headed by its entry.
UniProt Q92930: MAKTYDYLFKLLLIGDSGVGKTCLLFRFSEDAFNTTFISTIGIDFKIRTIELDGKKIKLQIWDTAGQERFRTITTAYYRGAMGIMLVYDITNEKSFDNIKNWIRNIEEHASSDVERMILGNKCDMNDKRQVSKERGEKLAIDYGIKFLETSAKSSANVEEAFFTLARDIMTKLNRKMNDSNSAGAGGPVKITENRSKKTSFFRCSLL
UniProt P53611: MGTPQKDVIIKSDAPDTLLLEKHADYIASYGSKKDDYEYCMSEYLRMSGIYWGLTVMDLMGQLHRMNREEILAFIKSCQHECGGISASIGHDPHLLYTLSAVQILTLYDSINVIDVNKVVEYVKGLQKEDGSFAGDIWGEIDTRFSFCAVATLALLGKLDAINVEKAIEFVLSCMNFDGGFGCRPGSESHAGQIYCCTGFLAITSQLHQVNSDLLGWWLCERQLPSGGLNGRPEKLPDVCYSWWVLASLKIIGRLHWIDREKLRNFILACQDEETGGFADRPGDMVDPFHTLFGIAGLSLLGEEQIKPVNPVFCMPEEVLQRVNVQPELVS
UniProt Q8TDY2, whole entry, looked up: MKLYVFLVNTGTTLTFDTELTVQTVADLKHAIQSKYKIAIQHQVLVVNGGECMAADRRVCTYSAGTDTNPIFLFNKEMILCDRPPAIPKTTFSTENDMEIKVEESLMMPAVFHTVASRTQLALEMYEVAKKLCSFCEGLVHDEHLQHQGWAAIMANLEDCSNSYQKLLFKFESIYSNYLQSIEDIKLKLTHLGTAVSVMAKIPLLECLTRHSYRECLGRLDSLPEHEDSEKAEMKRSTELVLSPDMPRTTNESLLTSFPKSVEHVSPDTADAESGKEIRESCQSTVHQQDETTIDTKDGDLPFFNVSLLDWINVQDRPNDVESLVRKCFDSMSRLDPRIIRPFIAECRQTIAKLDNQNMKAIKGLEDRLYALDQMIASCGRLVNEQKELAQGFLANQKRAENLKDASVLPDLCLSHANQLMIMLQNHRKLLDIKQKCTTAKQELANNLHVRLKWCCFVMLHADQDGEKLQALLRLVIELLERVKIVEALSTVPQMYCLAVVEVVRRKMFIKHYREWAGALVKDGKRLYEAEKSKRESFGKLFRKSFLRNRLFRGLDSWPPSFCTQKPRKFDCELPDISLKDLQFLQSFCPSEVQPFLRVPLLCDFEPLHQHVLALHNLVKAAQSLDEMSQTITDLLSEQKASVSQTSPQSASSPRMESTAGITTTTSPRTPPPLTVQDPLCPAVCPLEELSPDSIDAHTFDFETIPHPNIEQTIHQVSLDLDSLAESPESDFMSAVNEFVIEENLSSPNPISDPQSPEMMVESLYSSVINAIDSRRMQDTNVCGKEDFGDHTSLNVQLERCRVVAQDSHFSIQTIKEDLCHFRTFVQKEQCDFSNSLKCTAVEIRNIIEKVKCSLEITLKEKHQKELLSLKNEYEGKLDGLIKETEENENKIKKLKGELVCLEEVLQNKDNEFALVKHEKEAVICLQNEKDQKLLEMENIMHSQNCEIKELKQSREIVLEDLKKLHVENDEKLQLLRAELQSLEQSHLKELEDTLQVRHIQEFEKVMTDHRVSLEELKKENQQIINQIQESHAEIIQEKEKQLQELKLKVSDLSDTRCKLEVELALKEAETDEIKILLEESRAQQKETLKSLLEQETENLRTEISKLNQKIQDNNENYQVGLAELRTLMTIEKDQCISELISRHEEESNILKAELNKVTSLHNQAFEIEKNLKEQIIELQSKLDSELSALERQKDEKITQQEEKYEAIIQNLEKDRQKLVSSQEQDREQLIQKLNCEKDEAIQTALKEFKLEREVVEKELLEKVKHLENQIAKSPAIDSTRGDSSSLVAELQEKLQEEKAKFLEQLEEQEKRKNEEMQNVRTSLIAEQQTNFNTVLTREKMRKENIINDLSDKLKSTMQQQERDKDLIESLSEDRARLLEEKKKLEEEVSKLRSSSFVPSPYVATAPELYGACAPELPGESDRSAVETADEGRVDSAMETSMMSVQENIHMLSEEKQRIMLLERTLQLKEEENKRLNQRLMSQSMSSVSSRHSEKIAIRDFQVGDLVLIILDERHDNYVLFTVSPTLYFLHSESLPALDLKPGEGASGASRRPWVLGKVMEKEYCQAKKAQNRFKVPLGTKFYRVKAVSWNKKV
UniProt P43487, whole entry, looked up: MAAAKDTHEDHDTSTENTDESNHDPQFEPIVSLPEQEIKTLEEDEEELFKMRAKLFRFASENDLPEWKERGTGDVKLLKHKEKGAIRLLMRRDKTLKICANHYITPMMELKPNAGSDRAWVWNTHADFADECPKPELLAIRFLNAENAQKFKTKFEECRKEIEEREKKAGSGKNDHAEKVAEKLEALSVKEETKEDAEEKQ
UniProt P47224: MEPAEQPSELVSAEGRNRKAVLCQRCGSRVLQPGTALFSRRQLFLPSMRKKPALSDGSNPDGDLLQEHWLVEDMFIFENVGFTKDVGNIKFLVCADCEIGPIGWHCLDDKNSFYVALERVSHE
UniProt P46060: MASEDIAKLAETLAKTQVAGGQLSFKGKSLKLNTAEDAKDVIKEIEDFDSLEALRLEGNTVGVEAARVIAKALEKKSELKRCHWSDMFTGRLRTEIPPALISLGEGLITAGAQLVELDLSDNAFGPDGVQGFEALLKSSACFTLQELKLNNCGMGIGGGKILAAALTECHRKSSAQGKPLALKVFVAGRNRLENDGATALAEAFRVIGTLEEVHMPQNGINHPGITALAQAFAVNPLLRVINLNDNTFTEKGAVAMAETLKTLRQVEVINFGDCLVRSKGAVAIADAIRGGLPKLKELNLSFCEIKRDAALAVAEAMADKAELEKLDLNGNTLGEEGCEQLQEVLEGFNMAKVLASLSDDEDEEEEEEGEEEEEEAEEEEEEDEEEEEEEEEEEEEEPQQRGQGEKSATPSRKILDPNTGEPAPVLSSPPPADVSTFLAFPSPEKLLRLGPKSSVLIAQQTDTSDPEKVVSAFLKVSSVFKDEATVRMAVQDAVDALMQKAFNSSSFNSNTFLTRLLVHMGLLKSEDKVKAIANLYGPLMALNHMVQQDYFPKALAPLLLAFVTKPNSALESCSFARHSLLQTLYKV
UniProt Q15286: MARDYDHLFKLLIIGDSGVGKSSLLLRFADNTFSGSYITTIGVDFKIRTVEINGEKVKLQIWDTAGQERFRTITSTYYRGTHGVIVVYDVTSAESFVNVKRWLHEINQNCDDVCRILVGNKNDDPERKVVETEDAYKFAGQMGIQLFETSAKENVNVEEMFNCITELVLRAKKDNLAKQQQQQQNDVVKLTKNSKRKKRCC
UniProt Q96I25: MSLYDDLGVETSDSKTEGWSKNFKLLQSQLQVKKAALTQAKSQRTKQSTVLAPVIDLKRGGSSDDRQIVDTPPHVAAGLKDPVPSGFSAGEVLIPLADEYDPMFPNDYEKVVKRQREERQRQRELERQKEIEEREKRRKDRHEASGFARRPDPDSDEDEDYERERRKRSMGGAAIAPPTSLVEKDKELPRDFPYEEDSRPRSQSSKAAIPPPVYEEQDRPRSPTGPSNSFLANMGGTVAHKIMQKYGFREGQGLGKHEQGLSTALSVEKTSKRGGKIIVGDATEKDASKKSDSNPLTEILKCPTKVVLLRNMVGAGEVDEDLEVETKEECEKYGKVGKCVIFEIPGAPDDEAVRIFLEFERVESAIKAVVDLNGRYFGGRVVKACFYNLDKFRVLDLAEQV
UniProt Q8WWW0: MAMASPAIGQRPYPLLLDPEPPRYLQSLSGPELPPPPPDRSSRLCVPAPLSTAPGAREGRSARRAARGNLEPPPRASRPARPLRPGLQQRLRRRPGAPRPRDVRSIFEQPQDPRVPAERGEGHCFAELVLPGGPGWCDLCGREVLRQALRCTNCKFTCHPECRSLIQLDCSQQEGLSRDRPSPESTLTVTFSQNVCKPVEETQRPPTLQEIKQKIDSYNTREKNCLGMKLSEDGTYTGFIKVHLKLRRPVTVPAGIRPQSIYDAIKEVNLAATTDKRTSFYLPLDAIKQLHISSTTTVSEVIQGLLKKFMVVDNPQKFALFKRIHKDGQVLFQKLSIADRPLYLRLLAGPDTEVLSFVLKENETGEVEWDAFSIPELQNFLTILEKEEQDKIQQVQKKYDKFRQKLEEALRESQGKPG
UniProt P51151: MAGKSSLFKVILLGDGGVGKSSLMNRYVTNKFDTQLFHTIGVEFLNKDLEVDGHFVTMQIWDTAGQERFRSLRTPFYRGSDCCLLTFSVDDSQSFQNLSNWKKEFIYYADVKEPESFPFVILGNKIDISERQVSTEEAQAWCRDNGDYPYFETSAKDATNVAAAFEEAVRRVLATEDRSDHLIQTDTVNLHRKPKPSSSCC
UniProt P61225: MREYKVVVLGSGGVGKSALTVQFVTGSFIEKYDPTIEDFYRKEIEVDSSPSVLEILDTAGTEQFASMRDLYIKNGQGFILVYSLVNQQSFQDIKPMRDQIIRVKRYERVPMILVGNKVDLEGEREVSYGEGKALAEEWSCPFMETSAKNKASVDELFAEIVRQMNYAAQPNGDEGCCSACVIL
UniProt Q8N0T1: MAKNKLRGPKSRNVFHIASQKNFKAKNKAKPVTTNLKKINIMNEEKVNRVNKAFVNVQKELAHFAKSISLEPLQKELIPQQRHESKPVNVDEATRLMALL
UniProt P61026: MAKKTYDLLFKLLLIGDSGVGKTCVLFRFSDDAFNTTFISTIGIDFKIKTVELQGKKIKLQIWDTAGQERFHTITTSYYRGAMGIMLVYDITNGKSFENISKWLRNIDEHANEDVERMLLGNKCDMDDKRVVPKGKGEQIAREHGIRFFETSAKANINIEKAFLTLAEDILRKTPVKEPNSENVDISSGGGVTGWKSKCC
UniProt Q16576, whole entry, looked up: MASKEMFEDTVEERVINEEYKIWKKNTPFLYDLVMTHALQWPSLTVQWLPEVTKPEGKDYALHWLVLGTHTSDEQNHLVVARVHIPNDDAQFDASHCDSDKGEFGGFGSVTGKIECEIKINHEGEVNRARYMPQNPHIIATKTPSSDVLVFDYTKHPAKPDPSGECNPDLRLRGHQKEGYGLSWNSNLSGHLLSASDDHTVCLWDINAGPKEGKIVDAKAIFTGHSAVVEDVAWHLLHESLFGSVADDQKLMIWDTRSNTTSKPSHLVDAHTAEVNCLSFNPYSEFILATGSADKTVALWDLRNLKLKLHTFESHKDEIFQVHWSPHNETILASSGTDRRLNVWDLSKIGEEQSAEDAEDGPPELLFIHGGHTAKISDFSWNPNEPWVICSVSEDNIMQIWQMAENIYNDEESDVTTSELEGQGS
UniProt Q96QF0: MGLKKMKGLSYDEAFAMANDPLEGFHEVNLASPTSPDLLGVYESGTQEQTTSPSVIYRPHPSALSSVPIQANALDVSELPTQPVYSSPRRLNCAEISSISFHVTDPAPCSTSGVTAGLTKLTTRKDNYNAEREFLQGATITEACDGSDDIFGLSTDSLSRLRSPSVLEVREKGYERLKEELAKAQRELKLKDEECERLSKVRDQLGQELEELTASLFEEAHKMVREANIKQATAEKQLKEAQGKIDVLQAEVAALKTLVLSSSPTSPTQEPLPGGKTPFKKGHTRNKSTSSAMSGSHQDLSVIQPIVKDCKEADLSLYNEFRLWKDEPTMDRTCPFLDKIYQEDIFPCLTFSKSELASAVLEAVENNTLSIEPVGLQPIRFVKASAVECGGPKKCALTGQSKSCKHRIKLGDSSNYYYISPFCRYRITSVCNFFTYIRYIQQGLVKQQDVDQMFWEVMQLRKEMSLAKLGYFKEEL

[2] = compound: Cc1cccc(CC(=O)N2CCc3c2ccc(-c2cn(C)c4ncnc(N)c24)c3F)n1
Summary of the method: as §1

[3] = compound: Cc1cn(-c2cc(NC(=O)c3ccc(C)c(Nc4nccc(-c5cccnc5)n4)c3)cc(C(F)(F)F)c2)cn1 [nilotinib]
Summary of the method: as §1

[4] = compound: Cc1nc(Nc2n[nH]c3c2CN(C(=O)N[C@H](CN(C)C)c2ccccc2)C3(C)C)c2sccc2n1
Summary of the method: as §1

[5] = compound: Cc1nc(Nc2ncc(C(=O)Nc3c(C)cccc3Cl)s2)cc(N2CCN(CCO)CC2)n1 [dasatinib]
Summary of the method: as §1

[6] = compound: Cc1ncc(-c2ccnc(Nc3ccc(S(C)(=O)=O)cc3)n2)n1C(C)C
Summary of the method: as §1

[7] = compound: Cn1cc(-c2ccc3c(c2)CCN3C(=O)Cc2cccc(C(F)(F)F)c2)c2c(N)ncnc21
Summary of the method: as §1

[8] = compound: Cn1cc(-c2ccc3nnc(C(F)(F)c4ccc5ncccc5c4)n3n2)cn1
Summary of the method: as §1

[9] = compound: Cn1cncc1[C@@](N)(c1ccc(Cl)cc1)c1ccc2c(c1)c(-c1cccc(Cl)c1)cc(=O)n2C [tipifarnib]
Summary of the method: as §1

[10] = compound: FC(F)(F)c1ccc(/C=C/c2nc(COc3ccc(CCCCn4ccnn4)cc3)co2)cc1 [mubritinib]
Summary of the method: as §1

[11] = compound: NC(=O)Nc1cc(-c2cccc(F)c2)sc1C(=O)N[C@H]1CCCNC1
Summary of the method: as §1

[12] = compound: NC(=O)c1cnc(N[C@@H]2CCCC[C@@H]2N)nc1Nc1cccc(-n2nccn2)c1
Summary of the method: as §1

[13] = compound: NC1(c2ccc(-c3nc4ccn5c(=O)[nH]nc5c4cc3-c3ccccc3)cc2)CCC1
Summary of the method: as §1

[14] = compound: NCC(=O)Nc1ccc(-n2nc(C(F)(F)F)cc2-c2ccc3c(ccc4ccccc43)c2)cc1
Summary of the method: as §1

[15] = compound: Nc1ccccc1NC(=O)c1ccc(CNC(=O)OCc2cccnc2)cc1 [entinostat]
Summary of the method: as §1

[16] = compound: O=C(CCCCCCC(=O)Nc1ccccc1)NO [vorinostat]
Summary of the method: as §1

[17] = compound: O=C(CCCCCCNC(=O)c1cnc(N(c2ccccc2)c2ccccc2Cl)nc1)NO [citarinostat]
Summary of the method: as §1

[18] = compound: O=C(O)c1ccc2c(c1)nc(Nc1cccc(Cl)c1)c1ccncc12 [silmitasertib]
Summary of the method: as §1

[19] = compound: O=C1NC(=O)C(c2cnc3ccccn23)=C1c1cn2c3c(cc(F)cc13)CN(C(=O)N1CCCCC1)CC2
Summary of the method: as §1

[20] = compound: c1cc(OCCN2CCCCC2)cc(-c2n[nH]c3ccc(-c4nnc[nH]4)cc23)c1
Summary of the method: as §1

Measured: log2 fold change

RAB8B (UniProt Q92930)
inactive: [1] -0.008 | [2] 0.085 | [3] 0.059 | [4] -0.036 | [5] 0.015 | [6] -0.043 | [7] 0.031 | [8] -0.016 | [9] -0.088 | [10] -0.062 | [11] 0.203 | [12] 0.017 | [13] -0.053 | [14] 0.2 | [15] 0.116 | [16] 0.073 | [17] 0.03 | [18] -0.049 | [19] -0.013 | [20] 0.093

RABGGTB (UniProt P53611)
inactive: [1] 0.028 | [2] 0.023 | [3] 0.053 | [4] -0.05 | [5] 0.063 | [6] -0.032 | [7] 0.034 | [8] -0.02 | [9] 0.074 | [10] -0.004 | [11] -0.053 | [12] 0.032 | [13] 0.115 | [14] -0.017 | [15] -0.009 | [16] 0.088 | [17] 0.058 | [18] -0.023 | [19] -0.016 | [20] -0.049

RB1CC1 (UniProt Q8TDY2)
inactive: [1] -0.037 | [2] 0.014 | [3] 0.009 | [4] 0.078 | [5] -0.103 | [6] -0.012 | [7] 0.029 | [8] 0.017 | [9] -0.069 | [10] 0.026 | [11] 0.009 | [12] 0.124 | [13] 0.126 | [14] -0.022 | [15] 0.001 | [16] 0.047 | [17] 0.114 | [18] -0.08 | [19] -0.077 | [20] 0.111

RANBP1 (UniProt P43487)
inactive: [1] 0.049 | [2] -0.008 | [3] -0.005 | [4] -0.058 | [5] -0.008 | [6] 0.011 | [7] 0.033 | [8] 0.013 | [9] -0.011 | [10] 0.045 | [11] -0.043 | [12] 0.008 | [13] -0.02 | [14] 0.053 | [15] -0.02 | [16] 0.015 | [17] 0.02 | [18] -0.008 | [19] 0.095 | [20] -0.001

RABIF (UniProt P47224)
inactive: [1] -0.061 | [2] 0.048 | [3] 0.018 | [4] -0.091 | [5] 0.038 | [6] 0.045 | [7] 0.046 | [8] 0.029 | [9] -0.037 | [10] 0.016 | [11] -0.05 | [12] -0.008 | [13] 0.031 | [14] 0.13 | [15] -0.009 | [16] -0.018 | [17] 0.063 | [18] -0.044 | [19] -0.004 | [20] -0.006

Copied from above (two entries):
RB1CC1 (UniProt Q8TDY2)
inactive: [1] -0.037 | [2] 0.014 | [3] 0.009 | [4] 0.078 | [5] -0.103 | [6] -0.012 | [7] 0.029 | [8] 0.017 | [9] -0.069 | [10] 0.026 | [11] 0.009 | [12] 0.124 | [13] 0.126 | [14] -0.022 | [15] 0.001 | [16] 0.047 | [17] 0.114 | [18] -0.08 | [19] -0.077 | [20] 0.111

RANBP1 (UniProt P43487)
inactive: [1] 0.049 | [2] -0.008 | [3] -0.005 | [4] -0.058 | [5] -0.008 | [6] 0.011 | [7] 0.033 | [8] 0.013 | [9] -0.011 | [10] 0.045 | [11] -0.043 | [12] 0.008 | [13] -0.02 | [14] 0.053 | [15] -0.02 | [16] 0.015 | [17] 0.02 | [18] -0.008 | [19] 0.095 | [20] -0.001

(further entries)

RANGAP1 (UniProt P46060)
inactive: [1] 0 | [2] 0.032 | [3] -0.073 | [4] -0.025 | [5] -0.088 | [6] 0.051 | [7] -0.037 | [8] -0.024 | [9] -0.079 | [10] 0.03 | [11] 0.023 | [12] -0.063 | [13] -0.093 | [14] -0.053 | [15] 0.051 | [16] 0.076 | [17] 0.089 | [18] 0.105 | [19] 0.01 | [20] -0.025

RAB35 (UniProt Q15286)
inactive: [1] -0.039 | [2] -0.088 | [3] 0.126 | [4] 0.005 | [5] 0.08 | [6] 0.009 | [7] -0.001 | [8] 0.034 | [9] -0.001 | [10] -0.001 | [11] -0.069 | [12] -0.012 | [13] -0.01 | [14] 0.012 | [15] -0.011 | [16] -0.021 | [17] 0.004 | [18] 0.02 | [19] -0.038 | [20] -0.01

RBM17 (UniProt Q96I25)
inactive: [1] -0.056 | [2] 0.042 | [3] -0.095 | [4] -0.249 | [5] -0.108 | [6] 0.011 | [7] -0.067 | [8] -0.028 | [9] -0.042 | [10] -0.148 | [11] 0.021 | [12] 0.037 | [13] 0.003 | [14] -0.07 | [15] 0.08 | [16] 0.092 | [17] 0.056 | [18] 0.036 | [19] 0.027 | [20] -0.127

RASSF5 (UniProt Q8WWW0)
inactive: [1] 0.023 | [2] 0.017 | [3] 0.035 | [4] 0.096 | [5] 0.014 | [6] -0.068 | [7] -0.149 | [8] -0.076 | [9] 0.021 | [10] 0.096 | [11] 0.069 | [12] 0.046 | [13] 0.004 | [14] -0.014 | [15] -0.046 | [16] 0.009 | [17] 0.029 | [18] -0.033 | [19] 0.107 | [20] -0.156

RAB9A (UniProt P51151)
inactive: [1] -0.073 | [2] -0.021 | [3] -0.01 | [4] 0.012 | [5] 0.002 | [6] 0.002 | [7] 0.104 | [8] 0.001 | [9] 0.001 | [10] 0.002 | [11] 0.014 | [12] -0.026 | [14] -0.022 | [15] 0 | [16] 0.035 | [17] 0.039 | [18] -0.028 | [19] -0.032 | [20] -0.018
active: [13] -0.229

RAP2B (UniProt P61225)
inactive: [1] 0.058 | [2] -0.015 | [3] 0.111 | [4] -0.026 | [5] 0.021 | [6] 0.005 | [7] 0.022 | [8] 0.018 | [9] 0.003 | [10] 0.057 | [11] 0.083 | [12] 0.034 | [13] 0 | [14] 0.063 | [15] -0.001 | [16] -0.068 | [17] 0.028 | [18] -0.045 | [19] 0.013 | [20] -0.031

RAD50 isoform 2 (UniProt Q92878)
inactive: [1] -0.015 | [2] 0.009 | [3] -0.039 | [4] -0.112 | [5] -0.089 | [6] -0.016 | [7] 0.023 | [8] 0.042 | [9] -0.017 | [10] 0.063 | [11] -0.011 | [12] -0.042 | [13] -0.057 | [14] -0.064 | [15] 0.038 | [16] -0.014 | [17] 0.047 | [18] -0.008 | [19] -0.034 | [20] 0.009

RBIS (UniProt Q8N0T1)
inactive: [1] 0.012 | [2] -0.058 | [3] -0.058 | [4] 0.101 | [5] 0.008 | [6] -0.079 | [7] 0.023 | [8] 0.004 | [9] -0.02 | [10] 0.021 | [11] -0.021 | [12] -0.029 | [13] 0.02 | [14] 0.02 | [15] 0.019 | [16] 0.014 | [17] 0.092 | [18] -0.009 | [19] -0.002 | [20] -0.078

RAB10 (UniProt P61026)
inactive: [1] -0.036 | [2] -0.033 | [3] 0.006 | [4] 0 | [5] 0.028 | [6] -0.001 | [7] 0.005 | [8] 0.015 | [9] 0.004 | [10] 0.02 | [11] -0.08 | [12] -0.009 | [13] 0.088 | [14] -0.015 | [15] -0.01 | [16] -0.067 | [17] 0.016 | [18] -0.009 | [19] -0.062 | [20] -0.03

RBBP7 isoform 2 (UniProt Q16576)
inactive: [1] -0.018 | [2] -0.007 | [3] 0.004 | [4] 0.003 | [5] 0.013 | [6] 0.01 | [7] 0.004 | [8] 0.032 | [9] -0.005 | [10] 0.009 | [11] -0.015 | [12] -0.02 | [13] -0.017 | [14] -0.014 | [15] 0.018 | [16] -0.011 | [17] 0.005 | [18] 0.005 | [19] -0.009 | [20] -0.009

RAB3IP (UniProt Q96QF0)
inactive: [1] 0.06 | [2] 0.045 | [3] 0.062 | [4] -0.107 | [5] -0.012 | [6] 0.008 | [7] 0.046 | [8] -0.047 | [9] 0 | [10] -0.013 | [11] -0.014 | [12] -0.179 | [13] -0.074 | [14] -0.351 | [15] -0.038 | [16] 0.024 | [17] 0.104 | [18] -0.013 | [19] 0.146 | [20] 0.167

From the supplement of paper PMC10849652
